Results deposited as PubChem BioAssay AID686943 (Drosophila RNAi Screening Center, 2013)

Aim: 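Fly genes whose loss alters ERK activation after insulin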 (primary screen)
Cells: Drosophila S2R+ haemocyte-like cells expressing YFP-tagged ERK (Rolled)
Reagents: long dsRNA against Drosophila genes
Challenge: insulin stimulation versus unstimulated cells; dose and duration not given
Detection: 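Antibody staining for doubly phosphorylated ERK divided by ERK-YFP signal, as plate z-scores, in insulin-treated and untreated cells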
Scale: replicate 1, z-score of dpERK with insulin and replicate 2, z-score of dpERK with insulin: higher = more active ERK per ERK-YFP after insulin; replicate 1, z-score of dpERK under basal conditions: higher = more basal active ERK per ERK-YFP; replicate 1, z-score of ERK-YFP with insulin: higher = more YFP-tagged ERK signal
In all, the deposit lists about 23,000 reagents; this is an unselected part of those with a known target gene and a result. 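Extra replicates exist only for a retested subset of genes; insulin dose and duration not given; both raised and lowered dpERK matter.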 Not given: the amount of reagent, the time to read-out.

| Target gene | dsRNA | replicate 1, z-score of dpERK with insulin | replicate 2, z-score of dpERK with insulin | replicate 1, z-score of dpERK under basal conditions | replicate 1, z-score of ERK-YFP with insulin |
| --- | --- | --- | --- | --- | --- |
| CG8654 | DRSC07231 | -0.73 | 0.02 | 0.1 | 0.26 |
| CG4593 | DRSC18374 | -0.53 | -1.21 | -1.2 | -2.32 |
| Cipc | DRSC14898 | -0.45 | 0.24 | -0.3 | -0.01 |
| Cipc | DRSC14900 | 0.47 | 0 | -0.47 | -0.19 |
| CG13123 | DRSC02219 | -2.39 | -1 | 0.02 | -1.44 |
| CG10866 | DRSC08171 | 0.34 | 0.25 | -0.01 | 0.25 |
| CG4669 | DRSC10440 | -0.64 | -0.33 | -1.05 | 0.08 |
| spg | DRSC14373 | -0.11 | 0.05 | 0.23 | 0.34 |
| spg | DRSC14881 | -0.38 | 0.05 | 0.33 | 0.3 |
| l(3)76BDm | DRSC11047 | 0.3 | 0.51 | 0.86 | 0.18 |
| CG33267 | DRSC09120 | 0.28 | 0.3 | -0.52 | 0.17 |
| CG5854 | DRSC15894 | -0.78 | 0.02 | 1.61 | -0.02 |
| CG1909 | DRSC17150 | 0.05 | 0.23 | -0.76 | 0.07 |
| Myo10A | DRSC19758 | -1.9 | -2 | -1.73 | -0.41 |
| Myo10A | DRSC19834 | -0.57 | 0.16 | -0.19 | 1.62 |
| Myo10A | DRSC19837 | -0.01 | 0.2 | -0.02 | 0.4 |
| CAH3 | DRSC17776 | -0.36 | -0.04 | 0.19 | -0.74 |
| CG12818 | DRSC14556 | 0.02 | 0.52 | 0.51 | -0.34 |
| Atg12 | DRSC09803 | 0.28 | 0.34 | -1.26 | 0.48 |
| Prosbeta2R1 | DRSC18154 | 0.63 | 0.58 | -0.7 | 0.37 |
| CG31948 | DRSC00740 | -1.18 | 0.01 | 0.19 | 1.97 |
| Hsp23 | DRSC11188 | 0.41 | 0.84 | 0.73 | 0.06 |
| Arf4 | DRSC17195 | -0.36 | -0.37 | 0.07 | -0.46 |
| Sin3A | DRSC07552 | 3.37 | 1.93 | -2.27 | 0.31 |
| CG7600 | DRSC09681 | 0.68 | 0.97 | 0.35 | 0.99 |
| Osi4 | DRSC12134 | -0.07 | -0.17 | 0.61 | 0.01 |
| CG12446 | DRSC20618 | 0.31 | 0.27 | 0.31 | -0.13 |
| CG8369 | DRSC16413 | -0.43 | -0.24 | -0.1 | -0.49 |
| Bdp1 | DRSC03192 | -1.33 | -0.03 | 1.27 | 0.21 |
| CAH7 | DRSC15524 | 0.58 | 0.51 | 0.24 | 0.45 |
| CG43116 | DRSC13737 | -4.4 | -3.48 | -1.36 | 0.55 |
| nonA-l | DRSC17017 | -0.77 | -1.41 | -0.23 | 0.21 |
| Rox8 | DRSC16829 | -0.04 | -0.46 | -1.09 | 0.25 |
| Sec23 | DRSC12387 | 0.61 | -0.24 | -0.89 | 0.61 |
| crok | DRSC02593 | 0.68 | 0.92 | 0.28 | 0.2 |
| crok | DRSC21349 | 0.71 | -0.55 | -0.3 | -0.48 |
| CG31344 | DRSC16069 | 0.68 | -0.59 | 0.4 | -0.95 |
| Cda4 | DRSC20623 | 0.93 | 0.07 | -0.41 | 0.6 |
| Cda4 | DRSC20641 | 0.63 | -0.04 | -0.45 | -0.09 |
| Cda4 | DRSC20642 | -0.22 | 0.15 | -0.31 | 0.2 |
| CG31457 | DRSC22935 | 0.16 | -1.14 | 0.37 | -0.14 |
| Pop5 | DRSC10074 | 0.46 | 1.04 | 2.23 | 1.32 |
| CG11771 | DRSC14379 | -0.19 | -0.05 | 0.21 | -0.45 |
| CG30083 | DRSC05572 | -0.97 | 0.39 | 0.08 | -0.51 |
| CG11570 | DRSC09844 | 1.13 | 0.63 | 1.19 | 0.4 |
| CG10553 | DRSC14254 | -0.5 | -0.05 | 0.43 | 0.64 |
| DNAlig1 | DRSC04518 | -0.09 | -0.49 | -1.52 | -1.88 |
| Cyp6t3 | DRSC07388 | -0.96 | 0.17 | -1.22 | -0.4 |
| Acp53C14a | DRSC07224 | 0.59 | 0.51 | 1.11 | 0.24 |
| CG31550 | DRSC12197 | -0.8 | -0.27 | 0.63 | 0.22 |
| CG31550 | DRSC12198 | -0.24 | 0.22 | 1.21 | -0.35 |
| CG33296 | DRSC00998 | -0.46 | -0.18 | -0.21 | 0.54 |
| Patj | DRSC08712 | 0.98 | 0.38 | 1.03 | 0.37 |
| CG31231 | DRSC13308 | 0.4 | 0.98 | -0.93 | -4.39 |
| CG2017 | DRSC12293 | -1.02 | 0.18 | 1.14 | 0.39 |
| lambdaTry | DRSC06137 | 0.29 | -0.1 | -0.26 | 0.07 |
| CG7497 | DRSC10857 | -0.86 | -0.31 | 0.28 | 0.07 |

A stretch of the results above, for reference:
| Target gene | dsRNA | replicate 1, z-score of dpERK with insulin | replicate 2, z-score of dpERK with insulin | replicate 1, z-score of dpERK under basal conditions | replicate 1, z-score of ERK-YFP with insulin |
| --- | --- | --- | --- | --- | --- |
| Acp53C14a | DRSC07224 | 0.59 | 0.51 | 1.11 | 0.24 |
| CG31550 | DRSC12197 | -0.8 | -0.27 | 0.63 | 0.22 |
| CG31550 | DRSC12198 | -0.24 | 0.22 | 1.21 | -0.35 |
| CG33296 | DRSC00998 | -0.46 | -0.18 | -0.21 | 0.54 |
| Patj | DRSC08712 | 0.98 | 0.38 | 1.03 | 0.37 |
| CG31231 | DRSC13308 | 0.4 | 0.98 | -0.93 | -4.39 |
| CG2017 | DRSC12293 | -1.02 | 0.18 | 1.14 | 0.39 |
| lambdaTry | DRSC06137 | 0.29 | -0.1 | -0.26 | 0.07 |
